# Some of the results follow. These are raw signals, not scaled to a control.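 Primary screen: polymyxin B was added at a level permeabilizing Salmonella outer membranes while sparing inner membranes. DMSO wells, both with and without polymyxin B, established maximum growth. Plate-to-plate variation meant each plate was ranked on its own, and the lowest-OD600 compounds were selected as hits.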
# System: Salmonella enterica serovar Typhimurium SL1344
# Assay: bacterial growth OD600 after 18 h with compound and polymyxin B; higher = more bacterial growth (less inhibition)
# Details: 50 µM, Mueller-Hinton broth
SMILES,bacterial growth OD600 (polymyxin B 0.75 µg/mL),bacterial growth OD600 (polymyxin B 1 µg/mL)
CCc1[nH]c2c(CNC(=O)Cc3cccnc3)cc(F)cc2c1C,0.825,
C=CCS(=O)(=O)N1CCCC(CCc2cccc(OC)c2)C1 (stereo not given),0.007,
NC(=O)C1CCN(C(=O)CC(c2ccccc2)c2ccccc2Cl)CC1 (stereo not given),,0.775
O=C(CCCc1ccccc1)Nc1cccc(N2CCC(N3CCN(c4ccccc4O)CC3)CC2)c1,0.515,
CC(C)c1noc(-c2ccc(NCc3noc(C(C)C)n3)nc2)n1,0.623,
O=C(c1cc(COc2cccc3cccnc23)on1)N1CCCCCCC1,,0.835
OC(Cc1ccccc1)c1ccc2c(c1)CN(Cc1ccco1)CCO2 (stereo not given),0.786,
CN1CCCC(CN(CCc2ccccc2)C(=O)c2ccc(F)c(F)c2)C1 (stereo not given),,0.848
CCOC(=O)C1(Cc2ccc(F)cc2)CCCN(C(=O)c2cn(C)c3ccccc3c2=O)C1 (stereo not given),0.799,
COc1cc(CN2CCc3[nH]ncc3C2)ccc1OCC(O)CN(C)C1CCCCC1 (stereo not given),0.793,
Cc1cc2c(C)nc(N3CCC(NC(CCn4ccnc4C)c4ccccc4)CC3)nc2cc1F (stereo not given),0.754,
O=C(Cn1cccn1)N1CCCC(CCc2ccccc2)C1 (stereo not given),0.973,
CCc1ocnc1C(=O)NC1CCCN(C2CCCCCC2)C1 (stereo not given),,1.12
CCOC(=O)C1(CCOc2ccccc2)CCCN(C(=O)c2cccnc2SC)C1 (stereo not given),,0.869
CCOCCNC(=O)C1CCC(=O)N(CCc2ccc(Cl)cc2)C1 (stereo not given),,0.906
COc1cccc2c1OCC(NCc1ccccc1)C2 (stereo not given),0.907,
O=C(NCCN1CCCC1)c1cc(Cl)ccc1OC1CCN(C2CCCC2)CC1,,0.733
CCCN(CC1CC1)C(=O)c1cn(CC(C)C)cc(C(=O)NCC)c1=O,0.794,
C=CCCC(=O)N1CCC(C2CCN(CCc3ccccc3)CC2)C1 (stereo not given),,0.925
O=C(NCCc1ccccc1C(F)(F)F)c1cc(CN2CCCC(O)C2)on1 (stereo not given),0.785,

# Copied from above, two compounds:
SMILES,bacterial growth OD600 (polymyxin B 0.75 µg/mL),bacterial growth OD600 (polymyxin B 1 µg/mL)
CC(C)c1noc(-c2ccc(NCc3noc(C(C)C)n3)nc2)n1,0.623,
O=C(c1cc(COc2cccc3cccnc23)on1)N1CCCCCCC1,,0.835

# Source: the supplement of paper PMC12889115
